Experimental data reported in PubChem BioAssay AID248 (DTP/NCI, 2004).
The list is a part of this screen's results and no random one: it gathers tests that were run many times, whatever their T/C, doses with no T/C, and many T/C values between a quarter and a half above the control. Further doses and runs are listed elsewhere. T/C: endpoint of the treated group in % of that of the vehicle group. Some doses have a count of surviving animals in place of a T/C: the source files T/C as zero there, which appears to mark a toxic dose or a test without result, not a measured value. Some doses without a T/C left all or most animals alive at the check, yet need not have been tolerated: survival well below the control is almost never listed, so the zero probably covers shortened survival too. Survivors were counted at the toxicity check, usually on the fifth day, unless a day is given; later deaths do not show. Schedule codes are those of the source, taken here to give the interval after Q, in days (D) or hours (H), and the number of doses after X. Some schedules carry Z or #; the key to these is not given. For survival time, the PubChem record calls one and a half times the control and up active, and a quarter to a half above the control has no call in these data; cut-offs in other NCI protocols can differ. Some T/C values carry the count of animals alive at the toxicity check (mostly the fifth day); where none is given, no animal had died by that day.

System: L1210 leukemia ip in BDF1 mice, survival T/C
Assay: NCI In Vivo Anticancer Drug Screen. Data for tumor model L1210 Leukemia (intraperitoneal) in B6D2F1 (BDF1) mice
Settings: T/C endpoint: mean survival time, higher T/C = longer survival
[1] = dose: 200.0 mg/kg/injection, schedule: Q01DX009 (ip), vehicle: saline with Tween-80
[2] = dose: 200.0 mg/kg/injection, schedule: Q01DX001 (ip), vehicle: saline with Tween-80
[3] = dose: 400.0 mg/kg/injection, schedule: Q01DX001 (ip), vehicle: saline with Tween-80
[4] = dose: 400.0 mg/kg/injection, schedule: Q04DX002 (ip), vehicle: Klucel (hydroxypropylcellulose) (HPC)
[5] = dose: 100.0 mg/kg/injection, schedule: Q04DX002 (ip), vehicle: Klucel (hydroxypropylcellulose) (HPC)
[6] = dose: 200.0 mg/kg/injection, schedule: Q04DX002 (ip), vehicle: Klucel (hydroxypropylcellulose) (HPC)
[7] = dose: 400.0 mg/kg/injection, schedule: Q01DX001 (ip), vehicle: saline

C(#CC[P+](c1ccccc1)(c1ccccc1)c1ccccc1)C[P+](c1ccccc1)(c1ccccc1)c1ccccc1
survivor count (dose: 100.0 mg/kg/injection, schedule: Q01DX009 (ip), vehicle: Klucel (hydroxypropylcellulose) (HPC)): 0 of 6 | survivor count (dose: 200.0 mg/kg/injection, schedule: Q01DX009 (ip), vehicle: Klucel (hydroxypropylcellulose) (HPC)): 0 of 6 | survivor count (dose: 400.0 mg/kg/injection, schedule: Q01DX009 (ip), vehicle: Klucel (hydroxypropylcellulose) (HPC)): 0 of 6

ClP1(c2ccccc2)=NP(Cl)(c2ccccc2)=NP(Cl)(c2ccccc2)=NP(Cl)(c2ccccc2)=N1 (stereo not given)
survivor count [1]: 3 of 6

O=C(O)C(c1ccccc1)P(=S)(c1ccccc1)c1ccccc1 (stereo not given)
survivor count (dose: 300.0 mg/kg/injection, schedule: Q01DX001 (ip), vehicle: other): 0 of 6

CCCN(CCC)NC(=O)c1ccc(N=NN(C)C)cc1
survivor count [2]: 1 of 3 | survivor count [3]: 0 of 3

CN=C(NC)c1ccc(NC(=O)c2cc(C)cc(C(=O)Nc3ccc(C(=NC)NC)cc3)c2)cc1
survivor count (dose: 60.0 mg/kg/injection, schedule: Q01DX Z (ip), vehicle: saline): 0 of 6 | survivor count (dose: 120.0 mg/kg/injection, schedule: Q01DX Z (ip), vehicle: saline): 0 of 6

CN(N=O)C(=O)Nc1c[nH]c(=O)[nH]c1=O
T/C (dose: 5.0 mg/kg/injection, schedule: Q01DX Z (ip), vehicle: carboxymethylcellulose (CMC)): 131 % of control | T/C (dose: 5.3 mg/kg/injection, schedule: Q01DX Z (ip), vehicle: saline): 134 % of control | T/C (dose: 8.0 mg/kg/injection, schedule: Q01DX Z (ip), vehicle: saline): 132 % of control | T/C (dose: 10.0 mg/kg/injection, schedule: Q01DX Z (ip), vehicle: carboxymethylcellulose (CMC)): 142 % of control | T/C (dose: 12.0 mg/kg/injection, schedule: Q01DX Z (ip), vehicle: saline): 136 % of control | T/C (dose: 18.0 mg/kg/injection, schedule: Q01DX Z (ip), vehicle: saline): 138 % of control | T/C (dose: 60.0 mg/kg/injection, schedule: Q01DX001 (ip), vehicle: saline): 132 % of control | survivor count (dose: 100.0 mg/kg/injection, schedule: Q01DX Z (ip), vehicle: carboxymethylcellulose (CMC)): 6 of 6 | T/C (dose: 120.0 mg/kg/injection, schedule: Q01DX001 (ip), vehicle: saline): 141 % of control | survivor count (dose: 120.0 mg/kg/injection, schedule: Q01DX Z (ip), vehicle: carboxymethylcellulose (CMC)): 4 of 6

CN(C)C1(Cc2ccccc2)c2ccccc2-c2ccc(Br)cc21 (stereo not given)
survivor count (dose: 50.0 mg/kg/injection, schedule: Q01DX009 (ip), vehicle: saline with Tween-80): 6 of 6 | survivor count [1]: 6 of 6

CCCCN(C)/N=N/c1[nH]ncc1C(=O)OC
T/C (dose: 176.0 mg/kg/injection, schedule: Q01DX007 (ip), vehicle: other): 131 % of control | T/C (dose: 400.0 mg/kg/injection, schedule: Q01DX007 (ip), vehicle: other): 136 % of control

N=C(N)SCCSC(=N)N
survivor count (dose: 200.0 mg/kg/injection, schedule: Q04DX003 (ip), vehicle: saline sonified): 2 of 6 | survivor count (dose: 400.0 mg/kg/injection, schedule: Q04DX003 (ip), vehicle: saline sonified): 0 of 6

O=C(O)CS(=O)(=O)CC(=O)O
survivor count (dose: 400.0 mg/kg/injection, schedule: Q04DX003 (ip), vehicle: saline with Tween-80): 0 of 6

CNC(=N)c1ccc(NC(=N)c2ccc(NC(=N)c3ccc(NC(=O)Nc4ccc(C(=N)Nc5ccc(C(=N)Nc6ccc(C(=N)NC)cc6)cc5)cc4)cc3)cc2)cc1
T/C (dose: 8.0 mg/kg/injection, schedule: Q01DX015 (ip), vehicle: water): 134 % of control | T/C (dose: 50.0 mg/kg/injection, schedule: Q01DX001 (ip), vehicle: water): 131 % of control | T/C (dose: 63.0 mg/kg/injection, schedule: Q01DX015 (ip), vehicle: water): 138 % of control [5 of 6 alive]

O=C(CCN1C(=O)c2ccccc2C1=O)c1ccc(O)cc1
survivor count (dose: 100.0 mg/kg/injection, schedule: Q01DX009 (ip), vehicle: saline with Tween-80): 3 of 6 | survivor count [1]: 4 of 6 | survivor count (dose: 400.0 mg/kg/injection, schedule: Q01DX009 (ip), vehicle: saline with Tween-80): 1 of 6

NNC(=O)CNc1ccc(F)cc1
survivor count [4]: 1 of 3

CCN(CC)CCn1c2ccccc2c2cc3cnccc3c(C)c21
survivor count (dose: 300.0 mg/kg/injection, schedule: Q04DX003 (ip), vehicle: Klucel (hydroxypropylcellulose) (HPC)): 8 of 10

N#Cc1ccc(S(N)(=O)=O)cc1
survivor count (dose: 200.0 mg/kg/injection, schedule: Q01DX009 (ip), vehicle: acetone): 6 of 6 | survivor count (dose: 400.0 mg/kg/injection, schedule: Q01DX009 (ip), vehicle: acetone): 2 of 6

CCn1c(N)c(N=O)c(=O)[nH]c1=O
survivor count (dose: 400.0 mg/kg/injection, schedule: Q01DX009 (ip), vehicle: gum acacia): 1 of 6

O=NN(CCF)C(=O)NC1CS(=O)(=O)CS(=O)(=O)C1
T/C (dose: 3.12 mg/kg/injection, schedule: Q01DX001 (ip), vehicle: other): 135 % of control

CSc1ccc(NC(=O)Nc2c(C)cc(C)cc2C)cc1
survivor count (dose: 100.0 mg/kg/injection, schedule: Q01DX009 (ip), vehicle: other): 0 of 6 | survivor count (dose: 200.0 mg/kg/injection, schedule: Q01DX009 (ip), vehicle: other): 3 of 6 | survivor count (dose: 400.0 mg/kg/injection, schedule: Q01DX009 (ip), vehicle: other): 0 of 6

CN(C)C1CCCCCCC1
survivor count (dose: 150.0 mg/kg/injection, schedule: Q01DX001 (ip), vehicle: acetone): 0 of 6 | survivor count (dose: 300.0 mg/kg/injection, schedule: Q01DX001 (ip), vehicle: acetone): 0 of 6

NNC(=O)CNc1cccc(Cl)c1F
survivor count [5]: 2 of 3 | survivor count [6]: 0 of 3 | survivor count [4]: 0 of 3

c1ccc(NC2=NCCCN2)cc1
survivor count (dose: 100.0 mg/kg/injection, schedule: Q01DX001 (ip), vehicle: saline with Tween-80): 0 of 3 | survivor count [2]: 0 of 3 | survivor count [3]: 0 of 3

CCC[CH2][Sn]([Cl])([Cl])[CH2]CCC.c1ccncc1
survivor count (dose: 25.0 mg/kg/injection, schedule: Q01DX009 (ip), vehicle: Klucel (hydroxypropylcellulose) (HPC)): 0 of 3 | survivor count (dose: 50.0 mg/kg/injection, schedule: Q01DX009 (ip), vehicle: Klucel (hydroxypropylcellulose) (HPC)): 0 of 3 | survivor count (dose: 50.0 mg/kg/injection, schedule: Q04DX002 (ip), vehicle: Klucel (hydroxypropylcellulose) (HPC)): 3 of 3 | survivor count [5]: 0 of 3 | survivor count [6]: 1 of 3 | survivor count [4]: 1 of 3

CS(=O)(=O)OCCN(CCOS(C)(=O)=O)c1cccc(F)c1
T/C (dose: 10.0 mg/kg/injection, schedule: Q01DX001 (ip), vehicle: saline): 125 % of control | T/C (dose: 40.0 mg/kg/injection, schedule: Q01DX001 (ip), vehicle: saline): 145 % of control | survivor count (dose: 178.0 mg/kg/injection, schedule: Q01DX001 (ip), vehicle: saline): 0 of 6 | survivor count (dose: 267.0 mg/kg/injection, schedule: Q01DX001 (ip), vehicle: saline): 0 of 6 | T/C [7]: 135 % of control | survivor count [7]: 0 of 6 | survivor count (dose: 600.0 mg/kg/injection, schedule: Q01DX001 (ip), vehicle: saline): 0 of 6

Nc1nc(N)c(CCCOc2ccc(NC(=O)c3cccc(S(=O)OF)c3)cc2)c(N)n1 (stereo not given)
survivor count (dose: 200.0 mg/kg/injection, schedule: Q01DX015 (ip), vehicle: saline): 0 of 6 | survivor count (dose: 300.0 mg/kg/injection, schedule: Q01DX015 (ip), vehicle: saline): 0 of 6 | survivor count (dose: 500.0 mg/kg/injection, schedule: Q01DX015 (ip), vehicle: saline): 0 of 6
